Results on 15 compounds are retold here after PubChem BioAssay AID190 (DTP/NCI, 2004).

SMILES strings stand for the structures. The list is a part of this screen's results and no random one: it gathers tests that were run many times, whatever their T/C, doses with no T/C, and many T/C values between a quarter and a half above the control. Other doses and runs of a compound stand elsewhere. T/C is the treated group as % of the vehicle group. Some entries give survivors of the animals treated and no T/C: the source files T/C as zero there, which appears to mark a toxic dose or a test without result, not a measured value. Some survivor counts are full or nearly so, which does not show that the dose was tolerated: the source hardly ever lists a survival T/C far under the control, and the zero likely stands for such cases as well. Survivors were counted at the toxicity check, usually on the fifth day, unless a day is given; later deaths do not show. Schedule codes are those of the source, taken here to give the interval after Q, in days (D) or hours (H), and the number of doses after X. Signs of the kind (2×) count equal records among those shown. Some entries hold several experiments; their values stand side by side, smallest first. Where survival is the endpoint, this PubChem deposit counts one and a half times the control or more as active, and values a quarter to a half above the control carry no call in these data; other NCI protocols may use other cut-offs. Some T/C values carry the count of animals alive at the toxicity check (mostly the fifth day); where none is given, no animal had died by that day.

In this test the test system is AKR/Lw mice, AKR lymphoma ip, median survival T/C. As to the kind of experiment: NCI In Vivo Anticancer Drug Screen. Data for tumor model Lymphoma AKR (Transplanted) (intraperitoneal) in AKR/Lw mice. The note with it: T/C endpoint: median survival time, higher T/C = longer survival. The protocol: The antitumor activity of compounds was measured in mice bearing transplantable tumors. Survival or tumor size were measured and the results are expressed as the measurement made in the treated group (T) divided by the measurement made in the vehicle treated control group (C). The tumor model used in this assay is Lymphoma AKR (Transplanted) (intraperitoneal) in AKR/Lw mice

Setting [1] is: dose: 50.0 mg/kg/injection, schedule: Q04DX003 (ip), vehicle: Klucel (hydroxypropylcellulose) (HPC).
Where [2] appears, read: dose: 100.0 mg/kg/injection, schedule: Q04DX003 (ip), vehicle: Klucel (hydroxypropylcellulose) (HPC).
The mark [3] stands for this setting: dose: 200.0 mg/kg/injection, schedule: Q01DX001 (ip), vehicle: Klucel (hydroxypropylcellulose) (HPC).
Setting [4] is: dose: 200.0 mg/kg/injection, schedule: Q04DX003 (ip), vehicle: Klucel (hydroxypropylcellulose) (HPC).
[5] abbreviates: dose: 400.0 mg/kg/injection, schedule: Q01DX001 (ip), vehicle: Klucel (hydroxypropylcellulose) (HPC).
Where [6] appears, read: dose: 400.0 mg/kg/injection, schedule: Q01DX001 (ip), vehicle: saline.
Where [7] appears, read: dose: 4.0 mg/kg/injection, schedule: Q01DX009 (ip), vehicle: saline.

Take `NC(CSC(c1ccccc1)(c1ccccc1)c1ccccc1)C(=O)O` (stereo unspecified): the T/C was 135 and 137 % of control (dose: 2.5 mg/kg/injection, schedule: Q01DX009 (ip), vehicle: Klucel (hydroxypropylcellulose) (HPC)); 137 % of control [9 of 10 alive] (dose: 5.0 mg/kg/injection, schedule: Q01DX009 (ip), vehicle: Klucel (hydroxypropylcellulose) (HPC)); 126 and 137 % of control [9 of 10 alive] (dose: 10.0 mg/kg/injection, schedule: Q01DX009 (ip), vehicle: Klucel (hydroxypropylcellulose) (HPC)); 100 (2×), 100 [8 of 10 alive], 115, 135 % of control under setting [1]; 89 [7 of 10 alive], 118 [9 of 10 alive], 137 % of control under setting [2]; 132 % of control (dose: 100.0 mg/kg/injection, schedule: Q04DX003 (ip), vehicle: saline). The survivor count runs as follows: (dose: 18.0 mg/kg/injection, schedule: Q01DX009 (ip), vehicle: saline) 10 of 10; (dose: 25.0 mg/kg/injection, schedule: Q04DX003 (ip), vehicle: Klucel (hydroxypropylcellulose) (HPC)) 10 of 10; (dose: 37.5 mg/kg/injection, schedule: Q01DX009 (ip), vehicle: saline) 10 of 10; (dose: 40.0 mg/kg/injection, schedule: Q01DX009 (ip), vehicle: Klucel (hydroxypropylcellulose) (HPC)) 10 of 10; (dose: 50.0 mg/kg/injection, schedule: Q01DX009 (ip), vehicle: saline) 10 of 10 (2×); under setting [1], 10 of 10. Moreover, the survivor count is 10 of 10 (dose: 75.0 mg/kg/injection, schedule: Q01DX009 (ip), vehicle: saline); 9 of 10 (dose: 80.0 mg/kg/injection, schedule: Q01DX009 (ip), vehicle: Klucel (hydroxypropylcellulose) (HPC)); 8 of 10 and 9 of 10 (2×) (dose: 100.0 mg/kg/injection, schedule: Q01DX009 (ip), vehicle: saline); 10 of 10 under setting [2]; 8 of 10 under setting [3]; 7 of 10 (dose: 200.0 mg/kg/injection, schedule: Q01DX001 (ip), vehicle: saline). Besides, the survivor count under setting [4] is 4 of 10, 7 of 10, 8 of 10; the survivor count (dose: 200.0 mg/kg/injection, schedule: Q04DX003 (ip), vehicle: saline) is listed as 10 of 10; the survivor count under setting [5] was 4 of 10; the survivor count under setting [6] is listed as 4 of 10; the survivor count (dose: 400.0 mg/kg/injection, schedule: Q04DX003 (ip), vehicle: saline) is 1 of 10; the survivor count (dose: 600.0 mg/kg/injection, schedule: Q01DX001 (ip), vehicle: Klucel (hydroxypropylcellulose) (HPC)) was 4 of 10.
On to `CC(=O)OCC(=O)[C@@]1(O)CC[C@H]2[C@@H]3C[C@H](F)C4=CC(=O)CC[C@]4(C)[C@H]3C(=O)C[C@@]21C`, for which the survivor count is listed as 10 of 10 (dose: 100.0 mg/kg/injection, schedule: Q04DX003 (ip), vehicle: saline with Tween-80); 9 of 10 (dose: 200.0 mg/kg/injection, schedule: Q04DX003 (ip), vehicle: saline with Tween-80); 9 of 10 (dose: 400.0 mg/kg/injection, schedule: Q01DX001 (ip), vehicle: saline with Tween-80).
For the compound `COc1cc([C@@H]2c3cc4c(c(O)c3C[C@H]3COC(=O)[C@@H]32)OCO4)cc(OC)c1OC`, the T/C is 139 % of control [9 of 10 alive] (dose: 0.5 mg/kg/injection, schedule: Q01DX009 (ip), vehicle: saline) and 125 % of control (dose: 1.0 mg/kg/injection, schedule: Q01DX009 (ip), vehicle: saline). Also, the survivor count was 10 of 10 (dose: 2.0 mg/kg/injection, schedule: Q01DX009 (ip), vehicle: saline) and 9 of 10 under setting [7].
For the compound `Nc1nc(=S)c2[nH]cnc2[nH]1`, the survivor count is, setting by setting: under setting [7], 9 of 10; (dose: 4.0 mg/kg/injection, schedule: Q04DX003 (ip), vehicle: saline) 10 of 10; (dose: 8.0 mg/kg/injection, schedule: Q01DX009 (ip), vehicle: saline) 10 of 10; (dose: 16.0 mg/kg/injection, schedule: Q01DX009 (ip), vehicle: saline) 10 of 10; (dose: 32.0 mg/kg/injection, schedule: Q04DX003 (ip), vehicle: saline) 9 of 10; (dose: 64.0 mg/kg/injection, schedule: Q04DX003 (ip), vehicle: saline) 10 of 10.
Regarding `CC(=O)CCN1C(=O)c2ccccc2C1=O`, the survivor count under setting [2] was 9 of 10.
Take `COc1ccc(CCNC(=S)NCCc2ccc(OC)c(OC)c2)cc1OC`: the survivor count under setting [3] was 10 of 10.
Regarding `COc1cc2c(cc1OC)C(C#N)C2` (stereo unspecified), the survivor count is reported as 10 of 10 under setting [2]; 7 of 10 under setting [4]; 0 of 10 (dose: 400.0 mg/kg/injection, schedule: Q04DX003 (ip), vehicle: Klucel (hydroxypropylcellulose) (HPC)).
On to `O=C1CCSCCN1`, for which the survivor count under setting [6] is listed as 10 of 10.
Take `CC(Br)C1(c2cccc([N+](=O)[O-])c2)OCCO1` (stereo unspecified): the survivor count was 7 of 10 (dose: 100.0 mg/kg/injection, schedule: Q01DX001 (ip), vehicle: Klucel (hydroxypropylcellulose) (HPC)); 6 of 10 under setting [3]; 1 of 10 under setting [5].
Regarding `O=C1N[C@@H]([C@H]2CC[C@H](Cl)CN2)C(=O)N[C@H]1[C@H]1CC[C@H](Cl)CN1`, the T/C runs as follows: (dose: 4.0 mg/kg/injection, schedule: Q01DX001 (ip), vehicle: saline) 133 % of control; (dose: 4.0 mg/kg/injection, schedule: Q01DX001 (ip), vehicle: water) 146 % of control. Besides, the survivor count runs as follows: (dose: 4.0 mg/kg/injection, schedule: Q01DX009 (ip), vehicle: water) 10 of 10; (dose: 8.0 mg/kg/injection, schedule: Q01DX001 (ip), vehicle: saline) 10 of 10; (dose: 8.0 mg/kg/injection, schedule: Q01DX009 (ip), vehicle: water) 9 of 10; (dose: 16.0 mg/kg/injection, schedule: Q01DX001 (ip), vehicle: saline) 7 of 10; (dose: 16.0 mg/kg/injection, schedule: Q01DX001 (ip), vehicle: water) 10 of 10; (dose: 16.0 mg/kg/injection, schedule: Q01DX009 (ip), vehicle: water) 10 of 10. In addition, the survivor count (dose: 32.0 mg/kg/injection, schedule: Q01DX001 (ip), vehicle: water) was 10 of 10 and the survivor count (dose: 32.0 mg/kg/injection, schedule: Q01DX009 (ip), vehicle: water) is reported as 10 of 10.
For the compound `c1ccc2c(c1)OCCOCCOc1ccccc1OCCOCCO2`, the survivor count by setting is: (dose: 100.0 mg/kg/injection, schedule: Q04DX003 (ip), vehicle: other) 9 of 10; (dose: 200.0 mg/kg/injection, schedule: Q04DX003 (ip), vehicle: other) 10 of 10; (dose: 400.0 mg/kg/injection, schedule: Q04DX003 (ip), vehicle: other) 8 of 10.
With `CN(C)CCCNC(=O)Nc1ccccc1`, under setting [5], the survivor count is reported as 0 of 10.
Consider `c1ccc(C[N+](Cc2ccccc2)=C2CCCCC2)cc1`, for which, under setting [6], the survivor count was 0 of 10.
Regarding `C[N+](C)(C)Cc1ccccc1`, the survivor count is recorded as 1 of 10 (dose: 50.0 mg/kg/injection, schedule: Q01DX001 (ip), vehicle: saline) and 0 of 10 (dose: 100.0 mg/kg/injection, schedule: Q01DX001 (ip), vehicle: saline).
As for `N#CCCNc1ccc(NC(=O)C(F)(F)F)cc1`, the survivor count is, setting by setting: (dose: 100.0 mg/kg/injection, schedule: Q01DX009 (ip), vehicle: Klucel (hydroxypropylcellulose) (HPC)) 8 of 10; (dose: 200.0 mg/kg/injection, schedule: Q01DX009 (ip), vehicle: Klucel (hydroxypropylcellulose) (HPC)) 3 of 10; under setting [6], 7 of 10.
